Test results published in US9951039B2, “Pyrimidines for treatment of bacterial infections” (The Hong Kong Polytechnic University, priority 2016, dated 2018).
Some results were stated once for a whole list of compounds, not compound by compound.

System: S. aureus strain ATCC29213
Experiment: MIC, broth microdilution antimicrobial susceptibility test (CLSI)
Type: cell-based
Conditions: E. coli ATCC 25922 MIC over S. aureus 29213 MIC
Excerpt: This example illustrates the evaluation of 2,4,6-trisubstituted pyrimidines 14 for their antimicrobial activities against the Gram positive S. aureus strain ATCC29213 and the Gram negative E. coli strain ATCC25922 by measuring their MIC, which is the lowest concentration of an antimicrobial agent that prevents visible growth of a microorganism in a broth dilution susceptibility test according to the standard method approved by the Clinical and Laboratory Standards Institute (CLSI) guidelines.^21
Procedure of Antimicrobial susceptibility test: The MIC value of compounds was measured in the antimicrobial susceptibility test using the broth microdilution procedure in accordance with the CLSI guidelines.^21 Cation-adjusted Mueller Hinton broth (CA-MHB) was used for all the S. aureus strains in the assay. Cells in exponential phase of growth were diluted to approximately 5×10^5 cfu/mL. Stock solutions of each compound were freshly dissolved in dimethyl sulfoxide (DMSO). Then, serial dilutions of each compound in CA-MHB medium were added into 96-well microplate. The final percentage of DMSO in the assay was 1%. Control experiments were performed with 1% DMSO instead of the compound solution. After being incubated at 37° C. for 18 h, OD600 value of cells was measured on a microplate reader and the percentage of bacterial cell inhibition with respect to controls was calculated. […]

## CCC(CC)c1cc(CCN2CCCN(Cc3ccc(C(F)(F)F)cc3)CC2)nc(-c2ccncc2)n1 [Compound 14av_amine16, 1-(2-(6-(pentan-3-yl)-2-(pyridin-4-yl)pyrimidin-4-yl)ethyl)-4-(4-(trifluoromethyl)benzyl)-1,4-diazepane]
  MIC^c/MIC^b: Selectivity index: > 15
